For 2 molecules, binding results are on record in PMC5435946.

No constants are given. Whether binding was seen depends on the method and setting. Some results given as binding are weak or reduced against the parent protein; the word gives no strength.

One assay addresses T1, Thp1 (S. cerevisiae) (UniProt Q08231).
T1 sequence: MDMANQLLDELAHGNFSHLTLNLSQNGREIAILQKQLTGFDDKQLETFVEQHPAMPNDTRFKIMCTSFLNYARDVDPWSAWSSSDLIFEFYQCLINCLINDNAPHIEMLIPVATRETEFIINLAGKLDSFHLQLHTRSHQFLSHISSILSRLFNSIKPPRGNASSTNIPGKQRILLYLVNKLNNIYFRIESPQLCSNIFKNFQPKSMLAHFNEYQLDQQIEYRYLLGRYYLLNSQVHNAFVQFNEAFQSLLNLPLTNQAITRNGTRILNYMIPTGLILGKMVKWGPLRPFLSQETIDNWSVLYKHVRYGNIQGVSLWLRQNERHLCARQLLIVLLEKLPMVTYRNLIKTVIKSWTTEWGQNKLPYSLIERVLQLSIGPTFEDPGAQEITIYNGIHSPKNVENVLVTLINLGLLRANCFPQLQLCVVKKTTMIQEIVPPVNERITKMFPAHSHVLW
As to the kind of experiment: crystal structure; co-expressed and co-purified Sac3^60-550:Thp1:Sem1 complex at 16.5 mg/ml; sitting drop vapour diffusion, 20% PEG 3350, 0.2 M Mg formate, 100 mM MES 6.5; 2.3 Å, molecular replacement with PDB 3T5V; both purified.

For assay [1], the target named is T2, Sac3 (residues 60–550) (S. cerevisiae) (UniProt P46674).
T2 sequence: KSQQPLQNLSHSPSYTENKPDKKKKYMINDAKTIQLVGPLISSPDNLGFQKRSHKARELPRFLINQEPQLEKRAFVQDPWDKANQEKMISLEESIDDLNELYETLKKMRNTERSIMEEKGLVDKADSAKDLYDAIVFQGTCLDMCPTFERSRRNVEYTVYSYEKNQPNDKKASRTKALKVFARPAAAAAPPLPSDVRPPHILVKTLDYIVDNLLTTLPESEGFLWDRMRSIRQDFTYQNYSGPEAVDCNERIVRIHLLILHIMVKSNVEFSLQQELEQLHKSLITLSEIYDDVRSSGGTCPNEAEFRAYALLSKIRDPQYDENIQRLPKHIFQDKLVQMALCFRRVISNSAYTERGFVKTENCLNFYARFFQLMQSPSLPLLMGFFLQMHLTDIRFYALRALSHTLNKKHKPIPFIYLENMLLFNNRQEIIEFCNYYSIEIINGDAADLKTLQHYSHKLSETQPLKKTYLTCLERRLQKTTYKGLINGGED
The description is as above.

B1: Sem1 (protein, UniProt O94742 1-89)
chain: MSTDVAAAQAQSKIDLTKKKNEEINKKSLEEDDEFEDFPIDTWANGETIKSNAVTQTNIWEENWDDVEVDDDFTNELKAELDRYKRENQ
Take B1: in the assay with Thp1 (S. cerevisiae), the binding entry was “binds”.

B2: Thp1 (protein, UniProt Q08231 1-455)
chain: MDMANQLLDELAHGNFSHLTLNLSQNGREIAILQKQLTGFDDKQLETFVEQHPAMPNDTRFKIMCTSFLNYARDVDPWSAWSSSDLIFEFYQCLINCLINDNAPHIEMLIPVATRETEFIINLAGKLDSFHLQLHTRSHQFLSHISSILSRLFNSIKPPRGNASSTNIPGKQRILLYLVNKLNNIYFRIESPQLCSNIFKNFQPKSMLAHFNEYQLDQQIEYRYLLGRYYLLNSQVHNAFVQFNEAFQSLLNLPLTNQAITRNGTRILNYMIPTGLILGKMVKWGPLRPFLSQETIDNWSVLYKHVRYGNIQGVSLWLRQNERHLCARQLLIVLLEKLPMVTYRNLIKTVIKSWTTEWGQNKLPYSLIERVLQLSIGPTFEDPGAQEITIYNGIHSPKNVENVLVTLINLGLLRANCFPQLQLCVVKKTTMIQEIVPPVNERITKMFPAHSHVLW
B2: the binding result in assay [1] is recorded as “binds”.
